Earlier results, collected in patent US20130079749A1, “Modular Drug Delivery System for Minimizing Trauma During and After Insertion of a Cochlear Lead” (ADVANCED BIONICS, LLC, priority 2007, published 2013).
At least one compound was matched to its structure with a doubt left.

Conditions: glucocorticoid potency; cited from earlier work

## C[C@@H]1C[C@H]2[C@@H]3CCC4=CC(=O)C=C[C@]4(C)[C@@]3(F)[C@@H](O)C[C@]2(C)[C@@]1(O)C(=O)CO [Dexamethasone]
  potency relative to hydrocortisone: 20-30 times
  potency relative to prednisone: 4-5 times
